Laboratory results published in PubChem BioAssay AID186 (DTP/NCI, 2004).
The mice bore no tumour; each value counts animals alive of those treated. Counts of survivors are from the toxicity check (mostly the fifth day) where no day follows; animals may have died later. Schedules are NCI's codes, taken here to give the interval after Q, in days (D) or hours (H), and the number of doses after X.

Tested on: B6D2F1 mice, nontumored toxicity test, survival
Experiment: NCI In Vivo Anticancer Drug Screen. Data for tumor model Nontumored Animals (Toxicity Test) in B6D2F1 (BDF1) mice

## O=C1OC(C(O)CO)C(O)=C1O (stereo not drawn)
dose: 500.0 mg/kg/injection, schedule: Q01DX001 (ip), vehicle: water
  survivor count: 6 of 6
dose: 500.0 mg/kg/injection, schedule: Q01DX001 (oral), vehicle: water
  survivor count: 8 of 8
dose: 1000.0 mg/kg/injection, schedule: Q01DX001 (ip), vehicle: water
  survivor count: 6 of 6
dose: 1000.0 mg/kg/injection, schedule: Q01DX001 (oral), vehicle: water
  survivor count: 8 of 8
dose: 1200.0 mg/kg/injection, schedule: Q01DX001 (ip), vehicle: water
  survivor count: 3 of 6
dose: 1500.0 mg/kg/injection, schedule: Q01DX001 (ip), vehicle: water
  survivor count: 2 of 6
dose: 1500.0 mg/kg/injection, schedule: Q01DX001 (oral), vehicle: water
  survivor count: 8 of 8
dose: 2000.0 mg/kg/injection, schedule: Q01DX001 (ip), vehicle: water
  survivor count: 3 of 6
dose: 2000.0 mg/kg/injection, schedule: Q01DX001 (oral), vehicle: water
  survivor count: 8 of 8
dose: 3000.0 mg/kg/injection, schedule: Q01DX001 (ip), vehicle: water
  survivor count: 0 of 6
dose: 3000.0 mg/kg/injection, schedule: Q01DX001 (oral), vehicle: water
  survivor count: 7 of 8
dose: 4000.0 mg/kg/injection, schedule: Q01DX001 (oral), vehicle: water
  survivor count: 7 of 8

## COc1cccc2c1C(=O)c1c(O)c3c(c(O)c1C2=O)C[C@@](O)(C(C)=O)C[C@@H]3OC1CC(NC(C)=O)C(O)C(C)O1 (stereo partly drawn)
dose: 1.25 mg/kg/injection, schedule: Q03HX016 (ip), vehicle: other
  survivor count: 6 of 6
dose: 1.25 mg/kg/injection, schedule: Q03HX024 (ip), vehicle: other
  survivor count: 6 of 6
dose: 2.5 mg/kg/injection, schedule: Q03HX008 (ip), vehicle: other
  survivor count: 6 of 6
dose: 2.5 mg/kg/injection, schedule: Q03HX016 (ip), vehicle: other
  survivor count: 6 of 6
dose: 2.5 mg/kg/injection, schedule: Q03HX024 (ip), vehicle: other
  survivor count: 6 of 6
dose: 5.0 mg/kg/injection, schedule: Q01DX009 (ip), vehicle: other
  survivor count: 6 of 6
dose: 5.0 mg/kg/injection, schedule: Q01DX009 (oral), vehicle: other
  survivor count: 6 of 6
dose: 5.0 mg/kg/injection, schedule: Q01DX009 (sc), vehicle: other
  survivor count: 6 of 6
dose: 5.0 mg/kg/injection, schedule: Q03HX008 (ip), vehicle: other
  survivor count: 6 of 6
dose: 5.0 mg/kg/injection, schedule: Q03HX016 (ip), vehicle: other
  survivor count: 6 of 6
dose: 5.0 mg/kg/injection, schedule: Q03HX024 (ip), vehicle: other
  survivor count: 6 of 6
dose: 10.0 mg/kg/injection, schedule: Q01DX009 (ip), vehicle: other
  survivor count: 6 of 6
dose: 10.0 mg/kg/injection, schedule: Q01DX009 (oral), vehicle: other
  survivor count: 6 of 6
dose: 10.0 mg/kg/injection, schedule: Q01DX009 (sc), vehicle: other
  survivor count: 6 of 6
dose: 10.0 mg/kg/injection, schedule: Q03HX008 (ip), vehicle: other
  survivor count: 6 of 6
dose: 10.0 mg/kg/injection, schedule: Q03HX016 (ip), vehicle: other
  survivor count: 6 of 6
dose: 10.0 mg/kg/injection, schedule: Q03HX024 (ip), vehicle: other
  survivor count: 5 of 6
dose: 20.0 mg/kg/injection, schedule: Q01DX009 (ip), vehicle: other
  survivor count: 6 of 6
dose: 20.0 mg/kg/injection, schedule: Q01DX009 (oral), vehicle: other
  survivor count: 6 of 6
dose: 20.0 mg/kg/injection, schedule: Q01DX009 (sc), vehicle: other
  survivor count: 5 of 6
dose: 20.0 mg/kg/injection, schedule: Q03HX008 (ip), vehicle: other
  survivor count: 6 of 6
dose: 20.0 mg/kg/injection, schedule: Q03HX016 (ip), vehicle: other
  survivor count: 6 of 6
dose: 20.0 mg/kg/injection, schedule: Q03HX024 (ip), vehicle: other
  survivor count: 6 of 6
dose: 40.0 mg/kg/injection, schedule: Q01DX001 (ip), vehicle: other
  survivor count: 6 of 6
dose: 40.0 mg/kg/injection, schedule: Q01DX001 (oral), vehicle: other
  survivor count: 6 of 6
dose: 40.0 mg/kg/injection, schedule: Q01DX001 (sc), vehicle: other
  survivor count: 6 of 6
dose: 40.0 mg/kg/injection, schedule: Q01DX009 (ip), vehicle: other
  survivor count: 6 of 6
dose: 40.0 mg/kg/injection, schedule: Q01DX009 (oral), vehicle: other
  survivor count: 6 of 6
dose: 40.0 mg/kg/injection, schedule: Q01DX009 (sc), vehicle: other
  survivor count: 6 of 6
dose: 40.0 mg/kg/injection, schedule: Q03HX008 (ip), vehicle: other
  survivor count: 6 of 6
dose: 40.0 mg/kg/injection, schedule: Q04DX003 (ip), vehicle: other
  survivor count: 6 of 6
dose: 40.0 mg/kg/injection, schedule: Q08DX002 (ip), vehicle: other
  survivor count: 6 of 6
dose: 80.0 mg/kg/injection, schedule: Q01DX001 (ip), vehicle: other
  survivor count: 6 of 6
dose: 80.0 mg/kg/injection, schedule: Q01DX001 (oral), vehicle: other
  survivor count: 6 of 6
dose: 80.0 mg/kg/injection, schedule: Q01DX001 (sc), vehicle: other
  survivor count: 6 of 6
dose: 80.0 mg/kg/injection, schedule: Q01DX009 (ip), vehicle: other
  survivor count: 6 of 6
dose: 80.0 mg/kg/injection, schedule: Q01DX009 (oral), vehicle: other
  survivor count: 6 of 6
dose: 80.0 mg/kg/injection, schedule: Q01DX009 (sc), vehicle: other
  survivor count: 6 of 6
dose: 80.0 mg/kg/injection, schedule: Q04DX003 (ip), vehicle: other
  survivor count: 6 of 6
dose: 80.0 mg/kg/injection, schedule: Q08DX002 (ip), vehicle: other
  survivor count: 6 of 6
dose: 160.0 mg/kg/injection, schedule: Q01DX001 (ip), vehicle: other
  survivor count: 6 of 6
dose: 160.0 mg/kg/injection, schedule: Q01DX001 (oral), vehicle: other
  survivor count: 6 of 6
dose: 160.0 mg/kg/injection, schedule: Q01DX001 (sc), vehicle: other
  survivor count: 6 of 6
dose: 160.0 mg/kg/injection, schedule: Q01DX009 (ip), vehicle: other
  survivor count: 6 of 6
dose: 160.0 mg/kg/injection, schedule: Q01DX009 (oral), vehicle: other
  survivor count: 6 of 6
dose: 160.0 mg/kg/injection, schedule: Q01DX009 (sc), vehicle: other
  survivor count: 6 of 6
dose: 160.0 mg/kg/injection, schedule: Q04DX003 (ip), vehicle: other
  survivor count: 6 of 6
dose: 160.0 mg/kg/injection, schedule: Q08DX002 (ip), vehicle: other
  survivor count: 6 of 6
dose: 320.0 mg/kg/injection, schedule: Q01DX001 (ip), vehicle: other
  survivor count: 6 of 6
dose: 320.0 mg/kg/injection, schedule: Q01DX001 (oral), vehicle: other
  survivor count: 6 of 6
dose: 320.0 mg/kg/injection, schedule: Q01DX001 (sc), vehicle: other
  survivor count: 6 of 6
dose: 320.0 mg/kg/injection, schedule: Q04DX003 (ip), vehicle: other
  survivor count: 6 of 6
dose: 320.0 mg/kg/injection, schedule: Q08DX002 (ip), vehicle: other
  survivor count: 6 of 6

## CC(=O)Nc1ncc2ccccc2c1-c1ccc(N(CCCl)CCCl)cc1
dose: 1.0 mg/kg/injection, schedule: Q01DX001 (ip), vehicle: other
  survivor count: 2 of 2
dose: 10.0 mg/kg/injection, schedule: Q01DX001 (ip), vehicle: other
  survivor count: 2 of 2
dose: 100.0 mg/kg/injection, schedule: Q01DX001 (ip), vehicle: other
  survivor count: 2 of 2
